Assay results reported in PubChem BioAssay AID1259415 (National Center for Advancing Translational Sciences (NCATS), 2018).
Where “and” joins values, the source holds several entries; their conditions need not be identical. Equal entries are not always repeated. Screen size: about 410,000 compounds; about 18,000 (4.4%) were called active. This list was built around the results that the source calls inconclusive (neither active nor inactive); the mix of calls is not that of the screen. Rule as the data show it: active = activity change below about -60%; inconclusive = no clear call, values can overlap the other calls; inactive = above about -39%.
% is scaled to controls: 0 for no effect and ±100 for the full control effect.

Assay: qHTS Assay for inhibitors of the human cytomegalovirus (HCMV)
Details: HFF cells, HCMV-luciferase reporter, 72 h; at 57.5 µM; stronger effect = lower value
Procedure, shortened: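 Luciferase read-out from HCMV-luciferase-infected HFFs (MOI 1 PFU/cell) 72 h post infection at 37C; compounds added after 16 h cell attachment; activity normalized between buffer-only basal and Salinomycin (10uM) inhibitor controls.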
In the case of `Cn1c(=O)c2cc(NC(=S)NC3CC3)ccc2n1Cc1ccc(F)cc1`, the activity change, negative = inhibition is reported as inconclusive: -53.1%. For `Cc1ccc(C(=O)C2CCN(CC(=O)Nc3ccccc3C)CC2)cc1`, the activity change, negative = inhibition was active: -63%. For `COC(=O)c1sc(S(=O)(=O)N2CCN(CCO)CC2)c(C(=O)OC)c1C`, the activity change, negative = inhibition was inconclusive: -41.9%. In the case of `COc1ccccc1-c1[nH]c2ccccc2c1C(C)=O`, the activity change, negative = inhibition is reported as inconclusive: -58.2%. In the case of `CN1C(=O)c2ccc(NC(=O)c3cccc(N4C(=O)CCC4=O)c3)cc2C1=O`, the activity change, negative = inhibition is reported as inconclusive: -46.7%. In the case of `CC(=O)NCCNc1nc2cc(-c3cnn(CCC(C)C)c3)sc2c(=O)n1C`, the activity change, negative = inhibition is reported as inconclusive: -45.2%. With `O=C(CSc1nc2nc3c(cc2c(=O)n1-c1ccccc1)CCCC3)Nc1cccc2ccccc12` the activity change, negative = inhibition was inactive: -31.6%. For `Cc1ccc(N(CC(=O)NC2CCCCC2)S(=O)(=O)c2c(C)noc2C)cc1`, the activity change, negative = inhibition was inconclusive: -42.1%. In the case of `CCN(CC)c1ccc(NC(=O)Cn2c(C(C)NC(=O)c3ccc(C)cc3)nc3ccccc32)cc1` (stereo not drawn), the activity change, negative = inhibition is reported as inconclusive: -48.2%. In the case of `COc1ccc(N=Cc2c(O)c3ccccc3oc2=O)cc1`, the activity change, negative = inhibition is reported as inconclusive: -45.9%. In the case of `COc1ccc(C(=O)Nc2nc(-c3nnn(-c4ccc(C(C)C)cc4)c3C)ns2)cc1`, the activity change, negative = inhibition is reported as inconclusive: -40%. With `O=C(NCC1OCCc2ccccc21)c1cc(COc2c(F)cccc2F)on1` (stereo not drawn) the activity change, negative = inhibition was inconclusive: -45.5%. In the case of `CCN(CC)c1ccc(CNc2nc3ccccc3n2C(C)C)cc1`, the activity change, negative = inhibition is reported as inconclusive: -42.9%. With `COc1ccc(C)cc1NC(=O)Nc1cccc(-c2noc(C)n2)c1` the activity change, negative = inhibition was inactive: -38.3%. For `CCCCS(=O)(=O)c1oc(-c2ccc(F)cc2)nc1S(=O)(=O)c1ccc(C)cc1`, the activity change, negative = inhibition was active: -99.9%. For `OCC1(Cc2cccc(C(F)(F)F)c2)CCN(Cc2cc(F)cc(F)c2)CC1`, the activity change, negative = inhibition was active: -62%. With `Cc1oc(=O)cc(OCc2ccccc2)c1C` the activity change, negative = inhibition was inactive: -27.4%. For `COc1ccc(CCNC(=O)C(=O)NCC2OCCN2S(=O)(=O)c2ccc(OC)cc2)cc1` (stereo not drawn), the activity change, negative = inhibition was inconclusive: -47.5%. In the case of `Cn1c(=O)oc2cc(S(=O)(=O)N3CCC(C(=O)N4CCN(c5ccccc5F)CC4)CC3)ccc21`, the activity change, negative = inhibition is reported as inactive: -16%. In the case of `O=C(c1cccc(Cl)c1)N1CCC(N2CCC(C(=O)N3CCCC3)CC2)CC1`, the activity change, negative = inhibition is reported as inconclusive: -52.5%. With `Cc1nn(CC(=O)NCCc2cccs2)c(=O)c2nn(-c3ccccc3)c(C)c12` the activity change, negative = inhibition was inconclusive: -40.7%. With `CN(C)c1ccc(/C=N/N2C(=O)c3ccccc3C2=O)cc1` the activity change, negative = inhibition was inconclusive: -52.6%. With `COc1ccc(OCc2cc(C(=O)NCCN3CCCc4ccccc43)no2)c(Cl)c1` the activity change, negative = inhibition was inactive: 25%. In the case of `Cc1ccc(/C=C2\C(=O)NC(=O)N(CCc3ccc(F)cc3)C2=O)o1`, the activity change, negative = inhibition is reported as inactive: 26.9%. For `Cc1c(C(=O)N2CCOCC2)oc2c1-c1nn(CC(=O)NCc3cccc(Cl)c3)cc1CC2`, the activity change, negative = inhibition was inconclusive: -46.3%. With `O=C(Nc1ccc2c(c1)CCC2)c1ccc(F)c(S(=O)(=O)N2CCOCC2)c1` the activity change, negative = inhibition was inconclusive: -41%. With `Cc1cccc(CN2CCN(C3CN(Cc4cn(Cc5cc(C)cc(C)c5)nn4)S(=O)(=O)C3)CC2)c1` (stereo not drawn) the activity change, negative = inhibition was active: -101%. For `CC(=O)N1c2ccc(S(=O)(=O)Nc3ccc(Cl)cc3C)cc2CC1C` (stereo not drawn), the activity change, negative = inhibition was inconclusive: -45.5%. In the case of `COc1cc(/C=N/NC(=S)Nc2cccc(C(=O)O)c2)ccc1O`, the activity change, negative = inhibition is reported as inactive: -26.6%. For `CCCn1c(=O)c2c(nc3n2CCCN3Cc2ccccc2)n(C)c1=O`, the activity change, negative = inhibition was inactive: -32.1%. In the case of `CC(C)CNC(=O)NC1(C(F)(F)F)Oc2ccccc2O1`, the activity change, negative = inhibition is reported as inconclusive: -40.7%. For `Cc1ccc(-n2cc(-c3ccc([N+](=O)[O-])cc3)[nH]c2=S)c(C)c1`, the activity change, negative = inhibition was active: -64.3%. With `CCOc1ccccc1Nc1cc(C)nc2ccc(C)cc12` the activity change, negative = inhibition was inconclusive: -40.8%. With `CC(C)(C)c1cc(C(F)(F)F)nc(SCCCNC(=O)c2ccco2)n1` the activity change, negative = inhibition was inconclusive: -45.2%. In the case of `CC(=O)Nc1ccc(C(=O)NCC(=O)OCc2c(F)cccc2Cl)cc1`, the activity change, negative = inhibition is reported as inconclusive: -44.4%. In the case of `CC1CC(C)CN(CCCNC(=O)CN2C(=O)CSc3ccc(S(=O)(=O)N4CCOCC4)cc32)C1` (stereo not drawn), the activity change, negative = inhibition is reported as inconclusive: 0%. For `O=C(c1ccco1)N1CCN(C(=O)C(Sc2ccccc2)c2ccccc2)CC1` (stereo not drawn), the activity change, negative = inhibition was inconclusive: -44.3%. In the case of `COCCCNC(=S)N1CCCN(c2nc3cc(C)ccc3cc2C#N)CC1`, the activity change, negative = inhibition is reported as inconclusive: -53%. With `O=c1c2cn[nH]c2nc(SCc2c(F)cccc2F)n1-c1ccc(Cl)cc1` the activity change, negative = inhibition was inconclusive: -46%. For `O=C(Cn1cnc2ccccc2c1=O)NCCC(=O)Nc1ccc(F)cc1`, the activity change, negative = inhibition was inactive: 0.48% and inactive: 21%. In the case of `CC(C)COc1ccc(C(=O)Nc2cc(-c3ccccc3)no2)cc1`, the activity change, negative = inhibition is reported as inactive: 42.4%. In the case of `Cc1ccc(N(CC(=O)N/N=C/c2ccco2)S(=O)(=O)c2ccccc2)cc1`, the activity change, negative = inhibition is reported as inconclusive: -48.6%. For `O=C(Nc1ccc(N2CCOCC2)cc1)c1cc2c(s1)CCCC2`, the activity change, negative = inhibition was inconclusive: -57.8%.
